Where “and” joins values, the source holds several entries; their conditions need not be identical. Equal values may be shown once. At least one peptide structure holds a part that was inferred or is arguable (an end, a ring closure or a residue). Residues, ends and D or L forms follow the SMILES beside them.
Key:
[1] = system: post-operative pain in rats; experiment: von Frey withdrawal threshold after surgery (second study, subdermal dosing); format: in vivo
[2] = system: post-surgical pain in rats; experiment: oral administration, von Frey withdrawal response after plantar incision; format: in vivo; conditions: for Withdrawal Response Post-Dose: peptides 100 mg/kg; for Withdrawal Response Post-Surgery: 150 min after surgery, before dosing; for Withdrawal Response Pre-Surgery: baseline 15 min pre-surgery
Description: Table VI below illustrates results from the oral administration of SEQ ID NO: 1 and SEQ ID NO: 153 and the effects of Naloxone and aspirin on their ability to decrease the pain threshold.
In this experiment animals were weighed and placed in the group numbers designated on the left hand column. Each group is composed of 10 rats. Animals were anesthetized with 1.8 to 4% isofluorane (delivered via a nose cone) and each received an intramuscular injection of penicillin (30,000 IU) in the triceps muscle after preparation of the foot with betadine and alcohol (SOPs VET-1 and VET-8). A 1 cm long incision of skin and fascia was made in the plantar aspect (heel, midfoot or distal pad area) of the right hind paw. No underlying muscle was incised. After hemostasis with gentle pressure, the incision was closed with one or two sutures (5-0 silk/nylon ophthalmic suture on a taper TF needle or equivalent). The wound site was covered with a mixture of polymixin B, neomycin, and bacitracin ointment. After surgery, rats were allowed to recover in their cages until behavioral testing. Prior to surgery, rats were placed individually on an elevated wire mesh floor covered with a clear plastic cage top and allowed to acclimate. Baseline pain behavior was measured as follows: Withdrawal responses to mechanical stimulation were determined using von Frey filaments applied from underneath the cage through openings (12×12 mm in the plastic mesh floor to an area adjacent to the intended incision). Each von Frey filament (Target force of 0.008 g to 300 g) was applied once starting with 0.008 g filament and continuing until a withdrawal response occurred or 300 g force was reached. The median force producing a response, determined from three tests given over a 10-min period was considered the withdrawal threshold. Rats were tested for responses 15 minutes pre-surgery, 150 minutes after surgery, and 20 minutes after treatment. Oral treatments 1 and 2 were co-administered 180 minutes after surgery. The test article/vehicle administration and pain measurements were as per Table below.
As illustrated by Table VI, SEQ ID NOs: 1 and 153 attenuate sensitization to von Frey mechanical stimuli after oral application. The response to the von Frey monofilament is in gram. Arrow up (1) indicates an increase in the pain threshold and arrow down (1) indicates a decrease in the threshold. Zero indicates no change.

[3] = system: core temperature and fever in rats; experiment: yeast-induced fever, rectal temperature; format: in vivo; conditions: for Rectal Temperature Pre-Test Article: 23 h after injection; for Rectal Temperature Predose: before pre-treatment
[4] = system: post-operative pain in rats; experiment: Von Frey testing for mechanical allodynia, Brennan model (first study); format: in vivo, Sprague Dawley rats; conditions: 150 μg topical in vehicle or 150 μg subdermal in PBS, FIG. 1, 3 days after surgery, p<0.05
[5] = system: post-incisional pain in rats; experiment: Brennan model of post-incisional pain in rats, von Frey filaments (100 mg/kg subdermal); format: in vivo, Sprague Dawley rats
[6] = system: chronic pain; experiment: topical treatment of an adult subject with chronic pain, scaled score 1 to 10; format: in vivo, human
[7] = system: opioid receptor; experiment: mechanism of action with Naloxone, antagonist of the opioid receptors (oral pain study); set-up: species or system rats; conditions: inferred from in vivo Naloxone co-administration, no binding test
Procedure: When Naloxene was administered with SEQ ID NO: 153 (Group 8), the effects of SEQ ID NO: 153 were reduced (compare Group 8 to Group 10) but unlike the case of Morphine (Group 3), not completely eliminated.

[8] = group later given Treatment 1 ASA 1 mg/kg + Treatment 2
[9] = group later given Treatment 1 Naloxone 2 mg/kg + Treatment 2
[10] = topical single dose about 5 μg/10 cm2

CC(C)C[C@H](NC(=O)[C@@H](N)Cc1ccccc1)C(=O)N1CCC[C@H]1C(=O)N[C@@H](CO)C(=O)O [SEQ ID NO: 1, Phe-Leu-Pro-Ser] (H-FLPS-OH; N-terminus and C-terminus assumed)
increase in the pain threshold ([1]; 1 mg/kg on day 1 post-surgery, 3-hour post surgery measurements): 39%
effect compared to saline group ([1]; 50 mg/kg subdermal, Day-1, 3 h after surgery): 125%
withdrawal response ([1]; 50 mg/kg subdermal, Day-1, 3 h after surgery, measured 15-20 min after dosing, saline group 4.4 g): 9.9 g
increase in response time compared to the saline group ([1]; Day 3, group dosed on Day 1 only, no further dosing): 31%
increase of withdrawal response compared to saline group ([1]; Day-3, 15.25 mg/kg subdermally): 68%
withdrawal response ([1]; Day-3, 15.25 mg/kg subdermally (group given 1 mg/kg on day 1), saline group 12.7 g): 21.3 g
withdrawal response, pre-dose, pre-surgery ([1]; baseline of the group called 15 mg/kg (subdermal)): 28.1 g
withdrawal response, pre-dose, pre-surgery ([1]; baseline of the group later given 50 mg/kg subdermally): 30.2 g
Withdrawal Response Post-Dose ([2]; 20 min after oral treatment at 180 min after surgery, Treatment 1 0.9% Saline 2 mL/kg, morphine sulfate 3.7 mg/kg): 5.1 g and 5.1 ± 1.00 g
Withdrawal Response Post-Dose ([2]; 20 min after oral treatment, co-administered ASA 1 mg/kg, morphine sulfate 3.7 mg/kg): 4.9 g and 4.9 ± 0.55 g
Withdrawal Response Post-Dose ([2]; 20 min after oral treatment, co-administered Naloxone 2 mg/kg, morphine sulfate 3.7 mg/kg): 4.8 ± 0.44 g
Withdrawal Response Post-Surgery ([2]; group later given Treatment 1 0.9% Saline + Treatment 2): 3.7 g and 3.7 ± 0.23 g
Withdrawal Response Post-Surgery [2, 8]: 5.2 ± 0.67 g
Withdrawal Response Post-Surgery [2, 9]: 3.8 ± 0.55 g
Withdrawal Response Pre-Surgery ([2]; group later given Treatment 1 0.9% Saline 2 mL/kg + oral Treatment 2 (morphine sulfate 3.7 mg/kg or peptide 100 mg/kg)): 25.9 ± 3.44 g
Withdrawal Response Pre-Surgery [2, 8]: 21.1 ± 2.43 g
Withdrawal Response Pre-Surgery [2, 9]: 25.2 ± 4.95 g
Post-Dose change of pain threshold (arrow) ([2]; co-administered ASA 1 mg/kg, morphine sulfate 3.7 mg/kg, peptides 100 mg/kg oral): 0
effect when administered with aspirin ([2]; oral, ASA 1 mg/kg co-administered (Groups 4, 6, 9)): reduced effect
effect when administered with Naloxone ([2]; oral, Naloxone 2 mg/kg co-administered (Groups 3, 5, 8)): still was able to alleviate pain
effect on pain threshold ([2]; oral, with 0.9% saline as Treatment 1 (Groups 2, 7, 10)): increases the pain threshold
Rectal Temperature 1 hour Post-Test Article ([3]; Pre-Treatment Saline 5 ml/kg, 50 mg/kg subcutaneous): 36.9 ± 0.11 °C
Rectal Temperature Pre-Test Article ([3]; Pre-Treatment Saline 5 ml/kg, before 50 mg/kg s.c.): 37.5 ± 0.05 °C
Rectal Temperature Predose ([3]; Pre-Treatment Saline 5 ml/kg, group later given 50 mg/kg s.c.): 38.5 ± 0.07 °C
Rectal Temperature 1 hour Post-Test Article ([3]; Pre-Treatment Yeast 5 ml/kg, 50 mg/kg subcutaneous): 38.6 ± 0.13 °C
Rectal Temperature 1 hour Post-Test Article ([3]; Pre-Treatment Yeast 5 ml/kg, 100 mg/kg subcutaneous): 38.7 ± 0.18 °C
Rectal Temperature Pre-Test Article ([3]; Pre-Treatment Yeast 5 ml/kg, before 50 mg/kg s.c.): 39.2 ± 0.07 °C
Rectal Temperature Pre-Test Article ([3]; Pre-Treatment Yeast 5 ml/kg, before 100 mg/kg s.c.): 39.2 ± 0.10 °C
Rectal Temperature Predose ([3]; Pre-Treatment Yeast 5 ml/kg, group later given 50 mg/kg s.c.): 38.3 ± 0.07 °C
Rectal Temperature Predose ([3]; Pre-Treatment Yeast 5 ml/kg, group later given 100 mg/kg s.c.): 38.2 ± 0.09 °C
antipyretic effect ([3]; rats, 50 and 100 mg/kg subcutaneous): reduces core temperature and fever in rats
pain (paw withdrawal threshold, Von Frey) [4]: significantly reduce pain
withdrawal response on Day 1 ([5]; 100 mg/kg subdermal 3 h after surgery, measured 15-20 min later, saline group 4.2 g, FIG. 7): 52.7 g
withdrawal response on Day 3 ([5]; 100 mg/kg subdermal on Day 1 only, saline group 15.7 g, FIG. 8): 19.3 g
effect compared to saline group ([5]; 100 mg/kg subdermal, Day 1, p≦0.05): 1,155%
increase in pain threshold ([5]; 100 mg/kg subdermal, unpaired t test): statistically significant
withdrawal response, pre-dose, pre-surgery ([5]; baseline of the 100 mg/kg subdermal group): 32.5 g
scaled pain score (1 to 10) prior to treatment ([6]; 10 = severe pain, unable to walk, 1 = no pain): 8-9
duration of relief [6, 10]: more than a week
duration of treatment efficacy [6, 10]: about 10 days
time until relief was noticed ([6]; topical single dose about 5 μg/10 cm2, 5 μM in 0.01% Silwet L-77): ≤ 15 min
scaled pain score (1 to 10) after the treatment ([6]; topical single dose about 5 μg/10 cm2, 10 = severe pain, 1 = no pain): 2-3
binding to the opioid receptor relative to Morphine and Naloxone [7]: binds the opioid receptor more tightly than Morphine, but still less tightly than Naloxene

Reference: patent publication US7557088B2, “Methods and compositions for treating conditions” (NeoPro Labs, LLC, priority 2006, dated 2009)
